Data: the supplement of paper PMC3334620
In all, about 33,000 sequences were measured (“E-score (-0.5 to 0.5)”: median about -8e-05, highest 2% from about 0.23 on). The list shows a part of the results.

What follows are sequences tested against T1, Nrg2 (UniProt P38082) (assay: PBM E-score (8-mer binding enrichment) (E-score (-0.5 to 0.5)); higher = stronger / more preferred TF binding). Details: protein concentration: 100 nM; construct: GST-full length.
T1 sequence: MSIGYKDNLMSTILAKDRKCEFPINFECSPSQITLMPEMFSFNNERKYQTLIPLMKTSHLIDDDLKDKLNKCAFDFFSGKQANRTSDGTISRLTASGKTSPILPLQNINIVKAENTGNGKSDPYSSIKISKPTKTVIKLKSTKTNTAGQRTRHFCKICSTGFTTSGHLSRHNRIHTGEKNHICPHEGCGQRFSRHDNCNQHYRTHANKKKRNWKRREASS
Summary of the method: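 Detection of bound protein used fluorescent anti-GST, with scans normalised by masliner. The proteins were GST-tagged yeast transcription factors applied at about 100-200 nM to universal all-10-mer Agilent arrays made double-stranded by primer extension. Each ungapped eight-base word, pooled with its reverse complement, was scored with an E-score from the Universal PBM Analysis Suite.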

| Sequence | PBM E-score |
| --- | --- |
| AATGGGGG | -0.337 |
| AGTTCGAT | 0.0318 |
| AACTCCGT | 0.0651 |
| AAGAAAGC | 0.0284 |
| GTAGGTGA | -0.167 |
| CGTAAGCC | -0.237 |
| TCAGATGA | 0.148 |
| AGTAATAG | 0.247 |
| AGGGGCCA | 0.0682 |
| CTCGACTA | -0.118 |
| CGATGGCC | -0.0342 |
| CAGGGCAC | 0.215 |
| GCAGTACC | -0.0693 |
| TACACGGA | 0.136 |
| GCCACAGC | -0.0308 |
| ATCTGTAG | -0.16 |
| AAGCGACG | -0.0894 |
| AACTCAAA | 0.109 |
| TATCTAAA | 0.0773 |
| AGATTGTA | 0.0256 |
| AAAAAGCC | 0.14 |
| ATGGGGAG | 0.0173 |
| GGTTTCGA | 0.191 |
| CCGGTAAG | -0.0351 |
| TAACGCGA | 0.0726 |

| Sequence | PBM E-score |
| --- | --- |
| GCGCTCTA | 0.0746 |
| GATCGCGA | 0.168 |
| TGACGAAA | 0.109 |
| TACGGAGA | -0.0934 |
| CTGTACAA | -0.0574 |
| TAGAAGAA | -0.122 |
| CGCCATAC | -0.017 |
| CCGAAGTA | -0.0036 |
| AGTTTTAT | 0.0628 |
| CAAATAAC | 0.181 |
| AATCAACT | 0.171 |
| ACATCGCC | 0.00877 |
| CGTTCTTA | 0.0871 |
| CAATGCCA | 0.0462 |
| AACCATTC | -0.082 |
| TGGCATAA | 0.144 |
| CGACATAG | 0.0485 |
| GGGGCGAC | -0.0474 |
| TCCTGCAA | 0.00879 |
| CGTACGCA | -0.0382 |
| CTGGAGAC | -0.0117 |
| TGACTGCA | -0.232 |
| AAAGGACG | 0.0463 |
| AAAAATTG | -0.095 |
| TGCATCAA | 0.145 |

Not a retest: entries from further up.

| Sequence | PBM E-score |
| --- | --- |
| CAAATAAC | 0.181 |
| AATCAACT | 0.171 |
| ACATCGCC | 0.00877 |
| CGTTCTTA | 0.0871 |
| CAATGCCA | 0.0462 |
| AACCATTC | -0.082 |

Later entries:

| Sequence | PBM E-score |
| --- | --- |
| GGCGCATA | 0.132 |
| ATATAAAG | 0.0638 |
| CTCTGAAG | -0.126 |
| CATGAGAC | -0.0251 |
| ACTGCCTC | 0.0654 |
| CAAGACCG | -0.00525 |
| AACCGTCT | -0.152 |
| TGGCCTAA | -0.0413 |
| ATCATCCA | 0.0993 |
| AAAACGTC | 0.0498 |
| CACATCGC | -0.125 |
| TATGTACA | 0.0429 |
| GTCAAAAC | 0.0485 |
| GATAGTAA | 0.0722 |
| AGGCCCGC | -0.00315 |
| AAAGCCAC | 0.145 |
| CCCACTAG | -0.198 |
| GTGAGCTA | 0.061 |
| AGTAAAAT | -0.0226 |
| ATTGGAAA | -0.0614 |
| AACCACAC | 0.125 |
| TATCAATA | 0.0257 |
| CAATGCAA | 0.118 |
| GTACCTTA | -0.00526 |
| GCCTAACA | 0.0317 |

| Sequence | PBM E-score |
| --- | --- |
| CTGACAGA | 0.18 |
| CGGAGACC | 0.0242 |
| CTATTAAG | -0.0659 |
| TCACGGAA | 0.00343 |
| AGCCGCCA | -0.336 |
| CGGGCTCA | -0.178 |
| AAGCATCC | -0.123 |
| GACGACAA | 0.221 |
| AAACGCTA | -0.198 |
| GTGTTACA | -0.112 |
| AGGCGATA | 0.0241 |
| GCCGTAGC | -0.0864 |
| CGTCAGAG | -0.0277 |
| ATGTCCCG | -0.0705 |
| CACTGGCG | 0.0007 |
| GGGCCTAC | -0.255 |
| CCTACAAA | 0.043 |
| GCACCACC | -0.049 |
| CGGTGAGA | 0.0581 |
| AGACCCGG | 0.0347 |
| ACCCGAGA | 0.0345 |
| ACTGTGCT | -0.00417 |
| CAATACAC | 0.0544 |
| ACTGACTA | -0.0179 |
| AAGCCGAA | 0.0142 |

Part of the list above in a different format.
CGGGCTCA
  PBM E-score = -0.178
AAGCATCC
  PBM E-score = -0.123

Remaining list, next part.

| Sequence | PBM E-score |
| --- | --- |
| GTTTAATA | 0.198 |
| ACCTCTAT | -0.0653 |
| CGCCGCCA | -0.0777 |
| CCGTACCC | 0.0218 |
| AAAACCTA | 0.0556 |
| AAGTAAAA | -0.131 |
| AATCCAAG | 0.0978 |
| TACCTATA | -0.0107 |
| TCCGGACA | 0.0815 |
| GCTCGTAA | -0.0103 |
| ACTCGGCA | 0.154 |
| GCCACTAA | -0.0939 |
| GCACACAA | 0.0547 |
| AAGTGTCA | -0.186 |
| AGGGAGAT | -0.0858 |
| AAGTGAAC | -0.0513 |
| CAAATGTG | 0.166 |
| ACAAAAGC | 0.0641 |
| GTGCTCCA | -0.0717 |
| ATGATACC | 0.154 |
| AACGCTGC | 0.0121 |
| GCCCACGA | -0.0518 |
| AATACCCG | 0.0698 |
| ATCTTCGA | 0.0799 |
| CTGGCAAA | 0.137 |

| Sequence | PBM E-score |
| --- | --- |
| GTGCGATA | -0.0268 |
| ATGACTGC | 0.0247 |
| GAGTGTGC | 0.0556 |
| TCCTCCAA | 0.0214 |
| CTGAACTC | -0.0772 |
| GCGTGAAA | -0.0326 |
| ACTCCAAT | -0.176 |
| ATGACTTG | 0.0143 |
| ACTATGTA | 0.00908 |
| ACAACGCC | 0.0328 |
| TCAATAGA | 0.0639 |
| CGGCCGAG | 0.0605 |
| CCCCAAGC | 0.0423 |
| GAGAATGC | 0.11 |
| CCTAGGGA | 0.0278 |
| CACAATTC | 0.212 |
| GAGCGCCC | -0.136 |
| TACATAAA | -0.0428 |
| AGTGCAAG | 0.156 |
| AGCGAGTC | 0.0625 |
| ATGGCCTC | -0.0922 |
| AACCGAGC | 0.045 |
| GTACGGTA | 0.0837 |
| GGCAGGAA | -0.0622 |
| ATCCGAAA | 0.0482 |

Random excerpt: two records from the list, in no set order.

| Sequence | PBM E-score |
| --- | --- |
| GTAGGTGA | -0.167 |
| GGGCCTAC | -0.255 |

(cont.)

| Sequence | PBM E-score |
| --- | --- |
| ACCAAGAC | 0.00197 |
| GAGGCGGC | -0.0334 |
| ACTGGTGC | 0.0109 |
| GTAGGGAC | 0.0213 |
| TAGCCTAA | -0.226 |
| CATATGAG | 0.193 |
| AGCTATAT | 0.0935 |
| CGCTGAAA | -0.113 |
| CCCTTCCC | 0.0699 |
| GGGCGAGA | -0.016 |
| TCAATTCA | 0.102 |
| GCCTCCTA | -0.342 |
| CCGCGAGG | 0.152 |
| CTCTTCGA | 0.0214 |
| AGCGGACG | 0.146 |
| AGTCTCCC | -0.14 |
| AGAGCCAA | 0.132 |
| TGGGACCA | -0.0324 |
| AAAAAACC | -0.0346 |
| GCTGGACA | -0.17 |
| CTCCATAA | -0.181 |
| CTAAGACC | 0.0966 |
